# The supplement of paper PMC12819154, “High-throughput peptide-centric local stability assay extends protein–ligand identification to membrane proteins, tissues and bacteria” (Nature Structural & Molecular Biology, 2025)
# Protein sequences, listed by entry. Tags and fused reporters are not part of them. Lines headed by an entry give the natural chain unless they say otherwise; changes in a name come on top.
# UniProt Q6PDY2: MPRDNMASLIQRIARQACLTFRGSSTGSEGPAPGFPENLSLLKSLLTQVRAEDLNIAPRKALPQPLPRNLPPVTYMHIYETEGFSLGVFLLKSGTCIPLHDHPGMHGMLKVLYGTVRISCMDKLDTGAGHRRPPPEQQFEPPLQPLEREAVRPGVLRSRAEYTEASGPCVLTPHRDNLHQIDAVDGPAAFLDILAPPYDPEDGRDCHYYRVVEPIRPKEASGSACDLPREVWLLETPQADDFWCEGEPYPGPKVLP
# UniProt Q6SJQ0: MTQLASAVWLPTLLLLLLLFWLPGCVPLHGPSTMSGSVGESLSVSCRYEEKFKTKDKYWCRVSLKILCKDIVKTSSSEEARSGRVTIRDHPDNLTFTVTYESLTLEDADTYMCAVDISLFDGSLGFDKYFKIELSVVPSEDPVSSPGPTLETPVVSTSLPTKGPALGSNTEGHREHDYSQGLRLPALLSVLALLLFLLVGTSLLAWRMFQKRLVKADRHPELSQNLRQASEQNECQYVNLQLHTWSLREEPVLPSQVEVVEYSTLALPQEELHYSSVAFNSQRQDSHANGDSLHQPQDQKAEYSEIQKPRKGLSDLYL
# UniProt Q6P6M5: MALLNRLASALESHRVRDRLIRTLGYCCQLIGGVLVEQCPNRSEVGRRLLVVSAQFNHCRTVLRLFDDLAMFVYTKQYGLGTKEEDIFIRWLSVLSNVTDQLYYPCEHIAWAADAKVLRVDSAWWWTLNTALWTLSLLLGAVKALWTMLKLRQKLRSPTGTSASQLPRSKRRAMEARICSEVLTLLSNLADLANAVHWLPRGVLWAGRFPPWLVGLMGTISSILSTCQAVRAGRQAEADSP
# UniProt Q6P9R4: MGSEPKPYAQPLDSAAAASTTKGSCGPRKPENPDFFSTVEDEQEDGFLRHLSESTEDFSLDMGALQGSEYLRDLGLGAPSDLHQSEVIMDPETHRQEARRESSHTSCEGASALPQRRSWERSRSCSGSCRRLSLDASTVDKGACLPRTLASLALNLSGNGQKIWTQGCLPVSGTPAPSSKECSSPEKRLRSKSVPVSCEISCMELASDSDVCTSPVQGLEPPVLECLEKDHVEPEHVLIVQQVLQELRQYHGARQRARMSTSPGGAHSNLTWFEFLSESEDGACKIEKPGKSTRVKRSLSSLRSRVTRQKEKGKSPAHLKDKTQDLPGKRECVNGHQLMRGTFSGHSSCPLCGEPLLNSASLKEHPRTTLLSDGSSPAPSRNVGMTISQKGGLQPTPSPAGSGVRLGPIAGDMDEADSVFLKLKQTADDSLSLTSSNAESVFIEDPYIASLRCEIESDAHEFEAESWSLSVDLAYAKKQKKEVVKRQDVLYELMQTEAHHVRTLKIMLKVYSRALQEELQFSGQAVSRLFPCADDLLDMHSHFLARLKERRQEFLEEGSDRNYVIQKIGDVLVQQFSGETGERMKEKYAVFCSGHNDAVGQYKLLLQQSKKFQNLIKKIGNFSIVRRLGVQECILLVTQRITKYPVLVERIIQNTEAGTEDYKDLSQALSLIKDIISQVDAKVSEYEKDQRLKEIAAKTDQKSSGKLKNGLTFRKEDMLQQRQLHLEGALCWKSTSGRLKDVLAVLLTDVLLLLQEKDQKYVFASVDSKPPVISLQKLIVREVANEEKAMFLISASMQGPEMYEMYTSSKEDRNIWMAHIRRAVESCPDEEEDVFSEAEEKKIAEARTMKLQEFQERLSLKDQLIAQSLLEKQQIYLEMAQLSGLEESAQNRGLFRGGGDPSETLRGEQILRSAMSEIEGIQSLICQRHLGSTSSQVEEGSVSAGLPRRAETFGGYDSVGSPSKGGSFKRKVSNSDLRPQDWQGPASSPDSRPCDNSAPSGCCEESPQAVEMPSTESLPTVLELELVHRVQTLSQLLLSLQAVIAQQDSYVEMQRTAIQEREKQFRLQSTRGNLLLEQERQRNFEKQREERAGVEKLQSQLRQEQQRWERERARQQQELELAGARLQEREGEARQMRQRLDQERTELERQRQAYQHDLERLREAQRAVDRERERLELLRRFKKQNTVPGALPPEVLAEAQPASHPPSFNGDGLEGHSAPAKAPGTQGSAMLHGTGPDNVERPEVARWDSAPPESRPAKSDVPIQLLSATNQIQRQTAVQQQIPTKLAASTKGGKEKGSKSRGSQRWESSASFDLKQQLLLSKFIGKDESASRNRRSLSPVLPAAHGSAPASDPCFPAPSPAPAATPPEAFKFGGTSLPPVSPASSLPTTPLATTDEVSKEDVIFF
# UniProt Q6NTA4, whole entry: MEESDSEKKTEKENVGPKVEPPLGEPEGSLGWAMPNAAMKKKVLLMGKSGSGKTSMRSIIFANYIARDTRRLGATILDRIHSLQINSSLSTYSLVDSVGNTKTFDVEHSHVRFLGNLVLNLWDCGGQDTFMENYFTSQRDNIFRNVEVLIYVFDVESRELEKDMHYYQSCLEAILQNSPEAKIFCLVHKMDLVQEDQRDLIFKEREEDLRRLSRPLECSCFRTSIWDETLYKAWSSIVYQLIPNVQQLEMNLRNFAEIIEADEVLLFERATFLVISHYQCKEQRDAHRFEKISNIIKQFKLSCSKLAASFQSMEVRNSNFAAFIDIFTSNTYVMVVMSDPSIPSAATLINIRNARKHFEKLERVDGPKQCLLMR
# UniProt Q6NZQ4, whole entry: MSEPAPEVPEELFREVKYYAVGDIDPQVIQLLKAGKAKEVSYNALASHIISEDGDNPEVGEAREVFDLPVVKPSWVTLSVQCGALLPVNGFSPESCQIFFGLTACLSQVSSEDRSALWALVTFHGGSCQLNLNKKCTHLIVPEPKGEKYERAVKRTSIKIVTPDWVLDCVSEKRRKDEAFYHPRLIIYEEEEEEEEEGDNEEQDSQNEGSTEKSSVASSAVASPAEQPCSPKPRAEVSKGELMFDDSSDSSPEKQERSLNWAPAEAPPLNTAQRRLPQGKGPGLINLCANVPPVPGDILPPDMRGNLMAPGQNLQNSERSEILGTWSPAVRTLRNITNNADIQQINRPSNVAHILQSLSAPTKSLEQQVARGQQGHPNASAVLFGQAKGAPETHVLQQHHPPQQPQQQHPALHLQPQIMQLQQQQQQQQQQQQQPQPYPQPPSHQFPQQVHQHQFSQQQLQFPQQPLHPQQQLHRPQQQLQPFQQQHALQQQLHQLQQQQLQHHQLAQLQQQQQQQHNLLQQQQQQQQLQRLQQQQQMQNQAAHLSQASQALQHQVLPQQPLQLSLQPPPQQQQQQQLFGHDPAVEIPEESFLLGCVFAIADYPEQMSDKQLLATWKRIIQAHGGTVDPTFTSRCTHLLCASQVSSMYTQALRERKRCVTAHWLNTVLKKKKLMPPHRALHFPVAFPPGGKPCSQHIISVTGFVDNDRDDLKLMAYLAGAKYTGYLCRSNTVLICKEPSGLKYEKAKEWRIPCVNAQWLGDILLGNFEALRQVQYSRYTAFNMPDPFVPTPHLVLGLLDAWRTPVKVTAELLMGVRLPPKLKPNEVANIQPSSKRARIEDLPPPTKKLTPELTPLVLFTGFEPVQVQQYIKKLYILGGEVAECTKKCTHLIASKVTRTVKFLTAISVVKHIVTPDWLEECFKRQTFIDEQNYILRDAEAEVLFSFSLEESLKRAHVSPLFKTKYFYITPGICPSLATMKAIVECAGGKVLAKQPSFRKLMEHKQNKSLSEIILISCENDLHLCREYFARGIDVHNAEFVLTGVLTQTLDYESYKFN
# UniProt Q6PDH0: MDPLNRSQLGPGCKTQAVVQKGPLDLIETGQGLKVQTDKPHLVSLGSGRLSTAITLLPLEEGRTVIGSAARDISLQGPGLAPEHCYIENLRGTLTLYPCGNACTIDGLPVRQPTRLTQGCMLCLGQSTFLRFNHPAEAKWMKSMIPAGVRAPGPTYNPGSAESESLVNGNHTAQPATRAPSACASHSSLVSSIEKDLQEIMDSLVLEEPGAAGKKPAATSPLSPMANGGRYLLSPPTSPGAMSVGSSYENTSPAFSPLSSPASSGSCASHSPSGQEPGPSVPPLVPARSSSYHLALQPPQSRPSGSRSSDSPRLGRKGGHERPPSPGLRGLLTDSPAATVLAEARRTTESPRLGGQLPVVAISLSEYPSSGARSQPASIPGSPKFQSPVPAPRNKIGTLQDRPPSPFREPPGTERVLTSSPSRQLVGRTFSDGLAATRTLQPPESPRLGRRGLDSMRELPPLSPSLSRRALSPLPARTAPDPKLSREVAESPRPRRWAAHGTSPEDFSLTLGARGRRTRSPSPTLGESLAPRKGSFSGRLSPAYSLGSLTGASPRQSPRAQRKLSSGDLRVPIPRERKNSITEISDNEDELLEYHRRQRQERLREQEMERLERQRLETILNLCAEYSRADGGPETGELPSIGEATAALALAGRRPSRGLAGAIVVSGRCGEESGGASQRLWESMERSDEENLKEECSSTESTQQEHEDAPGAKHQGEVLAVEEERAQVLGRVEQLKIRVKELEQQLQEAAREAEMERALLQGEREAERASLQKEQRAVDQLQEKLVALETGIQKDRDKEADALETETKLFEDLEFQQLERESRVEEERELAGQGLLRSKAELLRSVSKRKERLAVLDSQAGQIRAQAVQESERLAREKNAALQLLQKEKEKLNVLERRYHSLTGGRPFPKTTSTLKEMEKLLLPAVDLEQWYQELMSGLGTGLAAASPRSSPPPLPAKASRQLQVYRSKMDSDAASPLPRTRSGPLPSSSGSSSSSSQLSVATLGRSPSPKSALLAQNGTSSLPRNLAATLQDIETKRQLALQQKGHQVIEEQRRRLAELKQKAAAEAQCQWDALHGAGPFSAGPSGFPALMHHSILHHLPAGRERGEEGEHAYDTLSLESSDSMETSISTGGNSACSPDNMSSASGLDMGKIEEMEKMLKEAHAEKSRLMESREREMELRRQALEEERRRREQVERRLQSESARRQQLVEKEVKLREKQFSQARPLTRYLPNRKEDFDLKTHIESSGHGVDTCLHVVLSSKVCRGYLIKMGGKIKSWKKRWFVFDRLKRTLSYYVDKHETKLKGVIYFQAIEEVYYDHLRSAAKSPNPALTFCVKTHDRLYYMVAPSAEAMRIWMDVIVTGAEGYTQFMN
# UniProt Q6PIU9: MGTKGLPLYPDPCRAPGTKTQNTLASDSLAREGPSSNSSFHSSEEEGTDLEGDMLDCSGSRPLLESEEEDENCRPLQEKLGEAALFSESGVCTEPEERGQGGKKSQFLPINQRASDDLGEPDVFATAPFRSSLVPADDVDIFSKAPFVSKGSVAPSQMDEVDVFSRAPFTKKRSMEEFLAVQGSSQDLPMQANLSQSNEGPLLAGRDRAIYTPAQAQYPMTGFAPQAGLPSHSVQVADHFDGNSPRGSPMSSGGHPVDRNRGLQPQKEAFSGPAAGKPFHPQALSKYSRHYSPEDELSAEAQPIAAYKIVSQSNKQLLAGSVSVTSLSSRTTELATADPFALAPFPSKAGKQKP
# UniProt Q6PEB4: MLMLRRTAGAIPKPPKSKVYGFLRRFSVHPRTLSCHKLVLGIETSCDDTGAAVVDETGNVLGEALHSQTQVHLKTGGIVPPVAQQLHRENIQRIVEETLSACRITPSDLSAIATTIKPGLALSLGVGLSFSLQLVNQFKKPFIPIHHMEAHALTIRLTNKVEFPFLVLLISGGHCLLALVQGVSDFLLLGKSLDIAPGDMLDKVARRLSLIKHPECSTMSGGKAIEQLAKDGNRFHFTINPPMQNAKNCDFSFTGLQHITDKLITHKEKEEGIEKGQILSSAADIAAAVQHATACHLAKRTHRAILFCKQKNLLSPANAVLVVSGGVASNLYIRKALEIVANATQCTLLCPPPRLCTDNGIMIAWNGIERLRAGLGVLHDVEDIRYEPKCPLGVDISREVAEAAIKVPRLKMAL
# UniProt Q6P1I3: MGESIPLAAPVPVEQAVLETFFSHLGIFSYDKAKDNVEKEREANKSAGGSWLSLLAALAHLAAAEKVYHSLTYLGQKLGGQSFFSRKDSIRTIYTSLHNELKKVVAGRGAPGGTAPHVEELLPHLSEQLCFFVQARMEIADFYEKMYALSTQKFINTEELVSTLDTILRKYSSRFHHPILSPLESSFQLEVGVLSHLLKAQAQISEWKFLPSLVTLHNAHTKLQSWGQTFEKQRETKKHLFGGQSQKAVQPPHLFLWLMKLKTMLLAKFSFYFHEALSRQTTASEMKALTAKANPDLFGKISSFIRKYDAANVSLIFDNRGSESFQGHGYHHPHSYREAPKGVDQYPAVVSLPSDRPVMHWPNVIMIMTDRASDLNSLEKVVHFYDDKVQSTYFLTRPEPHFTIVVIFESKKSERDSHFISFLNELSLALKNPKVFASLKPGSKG
# UniProt Q6PFR5: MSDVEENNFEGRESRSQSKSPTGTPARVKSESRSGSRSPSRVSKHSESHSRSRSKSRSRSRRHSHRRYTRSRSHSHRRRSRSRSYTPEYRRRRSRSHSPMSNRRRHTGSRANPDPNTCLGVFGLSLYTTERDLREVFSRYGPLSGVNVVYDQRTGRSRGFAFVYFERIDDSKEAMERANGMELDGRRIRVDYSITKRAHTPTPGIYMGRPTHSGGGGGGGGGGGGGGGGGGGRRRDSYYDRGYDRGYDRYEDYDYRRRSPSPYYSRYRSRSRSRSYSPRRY
# Some of the results follow. Small differences around the control level are noise.
# Compound: CN[C@@H]1C[C@H]2O[C@@](C)([C@@H]1OC)n1c3ccccc3c3c4c(c5c6ccccc6n2c5c31)C(=O)NC4 [staurosporine]
# Experiment: log2 fold change of tryptic peptide abundance, ligand vs vehicle (limited proteolysis) (log2 ratio); higher = more trypsin-susceptible (destabilized)
# Conditions: ligand concentration: 20 uM; sample: mouse liver crude lysate; replicate design: treated separately
row,Target,log2 fold change
1,"UniProt Q6Q783 (peptide sequence: MNVSPVPTLR, peptide start residue: 34)",-0.104
2,"UniProt Q6P8G8 (peptide sequence: GYLDLMGASQHSLR, peptide start residue: 34)",-0.235
3,"UniProt Q6P6M7 (peptide sequence: ASVVSGADR, peptide start residue: 468)",-0.149
4,"UniProt Q6PDY2 (peptide sequence: AEDLNIAPR, peptide start residue: 51)",-0.254
5,"UniProt Q6SJQ0 (peptide sequence: AEYSEIQKPR, peptide start residue: 301)",0.0712
6,"UniProt Q6P6M5 (peptide sequence: LLVVSAQFNHCR, peptide start residue: 49)",-0.72
7,"UniProt Q6P9R4 (peptide sequence: HLGSTSSQVEEGSVSAGLPR, peptide start residue: 929)",-0.223
8,"UniProt Q6P9Q6 (peptide sequence: HNQDSQHCSLSGDEEDELFK, peptide start residue: 1149)",-0.793
9,"UniProt Q6VH22 (peptide sequence: SHYGYEVEEVK, peptide start residue: 351)",-0.0815
10,"UniProt Q6NTA4 (peptide sequence: ATFLVISHYQCKEQR, peptide start residue: 209)",-0.21
11,"UniProt Q6PGF3 (peptide sequence: SLDEPALK, peptide start residue: 400)",0.134
12,"UniProt Q6NZQ4 (peptide sequence: SEILGTWSPAVR, peptide start residue: 320)",0.22
13,"UniProt Q6A065 (peptide sequence: ATEALKSEEKPMDVSAMPR, peptide start residue: 153)",-0.658
14,"UniProt Q6RHR9 (peptide sequence: GLKEGDLIVEVNKK, peptide start residue: 671)",-0.934
15,"UniProt Q6PJN8 (peptide sequence: EATLPPGVLGR, peptide start residue: 204)",0.184
16,"UniProt Q6P4T0 (peptide sequence: NQILPDAHKDHALK, peptide start residue: 1893)",-0.299

row,Target,log2 fold change
1,"UniProt Q6PDH0 (peptide sequence: VKELEQQLQEAAR, peptide start residue: 739)",0.589
2,"UniProt Q6PG16 (peptide sequence: LNPDSPQQSSQK, peptide start residue: 598)",0.538
3,"UniProt Q6PFD9 (peptide sequence: EYRPETGSWVFK, peptide start residue: 865)",-0.355
4,"UniProt Q69ZT1 (peptide sequence: RADVGLAEPLEVR, peptide start residue: 289)",0.18
5,"UniProt Q6PIU9 (peptide sequence: GSPMSSGGHPVDR, peptide start residue: 247)",0.057
6,"UniProt Q6PEB4 (peptide sequence: LRAGLGVLHDVEDIRYEPK, peptide start residue: 371)",0.651
7,"UniProt Q6NSR8 (peptide sequence: TVEINNTDAEGR, peptide start residue: 335)",0.15
8,"UniProt Q6PCM1 (peptide sequence: ALYDVGDIVHSVR, peptide start residue: 730)",0.569
9,"UniProt Q6P1I3 (peptide sequence: LGGQSFFSR, peptide start residue: 78)",0.46
10,"UniProt Q6PAR0 (peptide sequence: FIQSCPIIR, peptide start residue: 66)",-0.468
11,"UniProt Q6PB93 (peptide sequence: HFYYAAVPSAR, peptide start residue: 393)",0.256
12,"UniProt Q6PCQ0 (peptide sequence: SPYYSKPR, peptide start residue: 45)",-0.528
13,"UniProt Q6NSQ7 (peptide sequence: KHLFWEEETK, peptide start residue: 223)",0.361
14,"UniProt Q6PFR5 (peptide sequence: VDYSITKR, peptide start residue: 190)",0.358
15,"UniProt Q69ZT9 (peptide sequence: TPIFSPFPSVKPLRK, peptide start residue: 711)",-0.0582

# Look-ups from above:
# Value for UniProt Q6NTA4 (peptide sequence: ATFLVISHYQCKEQR, peptide start residue: 209) under log2 fold change: -0.21
# Value for UniProt Q6NZQ4 (peptide sequence: SEILGTWSPAVR, peptide start residue: 320) under log2 fold change: 0.22
